Results are given in words; binding and its absence hold for the method and conditions named. For some assays here: In cells and extracts the contact can be indirect. Some results given as binding are weak or reduced against the parent protein; the word gives no strength.

The chains behind the UniProt entries cited, without tags or fusion partners.
UniProt P31316: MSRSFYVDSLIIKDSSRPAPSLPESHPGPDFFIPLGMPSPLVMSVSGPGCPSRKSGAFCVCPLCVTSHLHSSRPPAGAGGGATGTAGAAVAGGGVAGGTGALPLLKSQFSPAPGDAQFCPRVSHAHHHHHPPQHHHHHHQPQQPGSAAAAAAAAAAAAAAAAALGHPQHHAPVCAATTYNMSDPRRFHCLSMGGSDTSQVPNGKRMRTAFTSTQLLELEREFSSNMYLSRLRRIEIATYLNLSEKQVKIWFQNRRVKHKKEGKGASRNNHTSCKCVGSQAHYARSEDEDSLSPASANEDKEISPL

Experiment [1] concerns the target T1, Ascl1, endogenous in the E12.5 mouse telencephalon (mouse (endogenous in E12.5 telencephalon)) (UniProt Q02067).
T1 sequence: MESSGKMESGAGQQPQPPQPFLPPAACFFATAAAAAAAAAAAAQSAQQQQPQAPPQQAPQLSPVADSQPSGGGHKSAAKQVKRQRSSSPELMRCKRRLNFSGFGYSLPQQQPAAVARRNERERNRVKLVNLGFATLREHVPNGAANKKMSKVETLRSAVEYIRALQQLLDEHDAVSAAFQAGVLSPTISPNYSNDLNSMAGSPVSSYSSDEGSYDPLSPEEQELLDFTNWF
In words: co-IP.

In experiment [2] the target is T2, Ascl1, yeast two-hybrid prey in pGADT7 (mouse) (UniProt Q02067).
T2 sequence: T1 sequence
In words: yeast three-hybrid.

For “Gsx2, endogenous in the E12.5 mouse telencephalon (from UniProt P31316 1-305)”, in experiment [1], the binding entry is “binds”. For the substance “Gsx2, interfering protein of the yeast three-hybrid assay (pBRIDGE MCS2) (from UniProt P31316 1-305)”, the binding entry in experiment [2] was “binds”.

The values above are taken from article doi:10.1101/794511.
